# Laboratory results taken from the supplement of paper PMC10338343.
# ± gives the standard deviation. Only a part is listed here, and it is no random draw. The uncertainty is large for many entries.
# System: MILI (PIWIL2) piRISC loaded with piRNA #1 (26 nt)
# Test: pre-steady-state target cleavage rate (min^-1); MIWI and MILI are mouse PIWI proteins and EfPiwi is from a freshwater sponge; tags in brackets are library labels; higher = faster piRNA-guided slicing of the target
# Conditions: guide: piRNA #1 5'p-UGAGGUAGUAGGUUGUAUAGUAUCCA; auxiliary factor: 500 nM mouse GTSF1
# How it was run: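 With or without 500 nM GTSF1 partner protein, 1 nM active affinity-purified piRISC carrying one synthetic guide was mixed with 0.1 nM transcribed, DNA-blocked target RNA library in HEPES–potassium acetate buffer at 33 °C for 0–8 or 0–960 min. Uncleaved targets were sequenced and normalised to depth and to weakly complementary targets, three trials were pooled, and k3 was capped at 0.0001 min^-1. The pre-steady-state cleavage rate came from a burst-and-steady-state fit.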
row,Sequence,pre-steady-state target cleavage rate
1,GGAGACCUAUGAUAUCAAACCUACUACCUCA,0.00119 ± 0.0042
2,GGAGAGGAUACUAUACAACCAACUAGCUCA,0.00206 ± 0.0031
3,GGAGACCUAUGAAUUCAACCUACUAGCUCA,0.00124 ± 0.005
4,GGAGACCAUACUAUAAACCUACUACCUCA,0.0199 ± 0.0046
5,GGAGACCUAUGAUUACAACGAACUACCUCA,0.000528 ± 0.0069
6,GGAGACCUAUGAAUAGUACCUACUACCUCA,0.000242 ± 0.0072
7,GGAGUGGAUACUAUACAACCUACAAGCUCA,0.00149 ± 0.0027
8,GGAGACCUUACUAUACAACCUUCAACCUCA,0.00437 ± 0.003
9,GGAGUGGAUACUAUACAACCUACGACCUCA,0.0834 ± 0.0092
10,GGAGACCUAUGAUAUGUACCUACCACCUCA,0.000185 ± 0.019
11,GGAGACCUUACUACUACAACCUACUACCUCA,0.107 ± 0.011
12,GGAGACCUAUGAUAUGUACCUACUACCUCU [g2:g13:cont:t1U],0.000166 ± 0.014
13,GGAGACCUACCUAUACAACCUACUACCUCA,0.117 ± 0.026
14,GGAGAGGAUACUUUACAUCCUACUACCUCA,0.253 ± 0.016
15,GGAGUGGAUAGUAUACAACGUACUACCUCA,0.0168 ± 0.0038
16,GGAGACCUAUCUAUACAACCUACUUGGAGA [g7:g20:cont:t1A],0.00296 ± 0.0032
17,GGAGAGGAUAGUAUACAACCUACUUCCUCA,0.00152 ± 0.006
18,GGAGACCUAACUAUUCAUCCUACUACCUCA,0.322 ± 0.043
19,GGAGAGGAUACUAUACAACCUACAACCUGA,0.00144 ± 0.0038
20,GGAGAGGAUACUAUACAUCCUACUACGUCA,0.00995 ± 0.003

# As entered above.
# pre-steady-state target cleavage rate, GGAGACCUAACUAUUCAUCCUACUACCUCA is entered as 0.322 ± 0.043
# pre-steady-state target cleavage rate, GGAGACCUAUGAUUACAACGAACUACCUCA is entered as 0.000528 ± 0.0069

# (continued)

row,Sequence,pre-steady-state target cleavage rate
1,GGAGACCUAUGAAUACAACCUACUUGGAGA [g7:g18:cont:t1A],0.000173 ± 0.017
2,GGAGAGGUUACUUUACAACCUACUACCUCA,0.175 ± 0.01
3,GGAGACGUUACUAUACAACGUACUACCUCA,0.0206 ± 0.0027
4,GGAGACCUAUGAUAUGUACCUACUAGCCUCA,0.000106 ± 0.025
5,GGAGACCUAUGAUUAGAACCUACUACCACA,0.000225 ± 0.015
6,GGAGACCUAUGAUAUGAACGUACUACGUCA,0.0005 ± 0.01
7,GGAGACCUAUCAUAUACAACCUACUACCUCA,0.0423 ± 0.0085
8,GGAGACCUUACUUUACAUCCUACUACCUCA,0.26 ± 0.022
9,GGAGACCUUACUAUACAUCCUACUACCACA,0.246 ± 0.02
10,GGAGACCUAUCUAUUCAACCUUCUACCUCA,0.0069 ± 0.0028
11,GGAGAGGAUACAAAACAACCUACUACCUCA,0.128 ± 0.013
12,GGAGACCUAUGAAUACAAGGAUGAUGGAGA [g13:g18:cont:t1A],0.000178 ± 0.027
13,GGAGACCUAUCUAUACAACCUAGUACGUCA,0.00368 ± 0.0037
14,GGAGACCUAUGAUAUGUACCUACUUACCUCA,0.000235 ± 0.011
15,GGAGACCUAUGUAUACAACUCUACUACCUCA,0.000517 ± 0.0088
16,GGAGACCUUACUAUACAACCUACUACCUCU [g2:g22:cont:t1U],0.177 ± 0.017
17,GGAGAGGAUAGUAUACAACCAACUACCUCA,0.00282 ± 0.0036
18,GGAGACCUAUGAUAUGAACCUACUACCUCCA,0.000384 ± 0.0071
19,GGAGACCUAUGAUAUCAACCUACUUCCUGA,0.000179 ± 0.018
20,GGAGACCUAUGAAUUCUACCUACUACCUCA,0.000451 ± 0.0092
